pKi: −log10 of the molar value. Part of at least one peptide drawing is inferred or uncertain, most often the ends. At least one structure is not confirmed: it was looked up by name or label, or the drawing left a doubt. Starred links: 1 amine or outer side, 2 acyl side, 3 side chain; linkers in the order of their positions; H or OH if unused. Non-standard residues stand in square brackets, D forms with d. Residues, ends and D or L forms follow the SMILES beside them. *: point of attachment. DTPA = O=C(O)CN(CCN(CC(=O)O)CC(=O)O)CCN(CC(=O)O)CC(=O)*; Phe(4-Cl) = N[C@@H](Cc1ccc(Cl)cc1)C(=O)O; d2Nal = N[C@H](Cc1ccc2ccccc2c1)C(=O)O; εLys = N[C@@H](CCCCN[*:1])C(=O)[*:2]; Mercaptoacetyl = O=C(CS)*; Ahx = NCCCCCC(=O)O
Target: T1, somatostatin receptor (Rattus norvegicus, UniProt P30680)
T1 construct: endogenous in cells; host or cells: AR42J rat pancreatic tumor cell line (membrane preparation)
Experiment: Inhibition of binding of [125I-Tyr11]somatostatin-14 to AR42J rat pancreatic tumor cell membranes
Conditions: inhibition constant; displacement of 0.5 nM [125I-Tyr11]somatostatin-14 from AR42J cell membranes, 25 min at 30° C; free peptides and [Re=O]-complexed peptides
Description: Inhibition of Binding of [^125 I-Tyr^11 ]somatostatin-14 to AR42J Rat Pancreatic Tumor Cell Membranes
The rat pancreatic tumor cell line AR42J which expresses the somatostatin receptor was cultured in Dulbecco's minimal essential media (DMEM) supplemented with 10% fetal bovine serum (FBS) and 8 mM glutamine in a humdified 5% CO2 atmosphere at 37° C. in T-flasks. Harvested cells were homogenized in cold 50 mM Tris-HCl buffer (pH 7.4) and the homogenate then centrifuged at 39,000 g for 10 min at 4° C. Pellets were washed once with buffer and then resuspended in an ice-cold solution of 10 mM Tris-HCl (pH 7.4). Equal aliquots of this cell membrane preparation were incubated with [^125 I-Tyr^11 ]somatostatin-14 (at a final concentration of 0.5nM and 750,000 cpm/mL, at a specific activity of 2000 Ci/mmol, Amersham, Arlington Heights, Ill.) and peptide at a final concentration of from 10^-11 M to 10^-6 M in a solution of 50 mM HEPES (pH 7.4) containing 1% bovine serum albumin (BSA), 5 mM MgCl2, Trasylol (200,000 International Units), bacitracin (0.02 mg/mL) and phenylmethylsulfonylfluoride (0.02 mg/mL) for 25 min at 30° C. Using a filtration manifold, this mixture was filtered through a polyethyleneimine-washed GC/F filter (Whatman, Maidstone, England), and the residue remaining on the filter wastled thrice with 5 mL cold HEPES buffer. The filter and a sample of the filter washings were then counted in a gamma counter. To assess non-specific binding, the assay was performed in the presence of unlabeled somatostatin-14 at 200 nM. Data analysis including Hill plots of the data provided inhibition constants (see Bylund & Yamamura, "Methods of receptor binding", in Methods in Neurotransmitter Receptor Analysis, Yamamura et al., eds., Raven Press: New York, 1990).

Sequences of proteins named here, by UniProt entry; tags and fusion partners are left off. A change or cut given only in a name is not applied to a line headed by its entry.
UniProt P30680: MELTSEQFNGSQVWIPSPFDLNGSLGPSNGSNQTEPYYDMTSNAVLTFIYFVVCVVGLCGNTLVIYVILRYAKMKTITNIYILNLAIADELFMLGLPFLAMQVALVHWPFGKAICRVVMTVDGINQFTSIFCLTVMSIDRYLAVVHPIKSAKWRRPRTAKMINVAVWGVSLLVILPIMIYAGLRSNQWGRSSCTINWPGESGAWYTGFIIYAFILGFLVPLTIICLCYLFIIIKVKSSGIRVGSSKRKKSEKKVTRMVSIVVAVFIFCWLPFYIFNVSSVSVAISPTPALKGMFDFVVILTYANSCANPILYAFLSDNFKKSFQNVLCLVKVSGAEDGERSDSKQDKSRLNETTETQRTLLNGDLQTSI

SMILES	pKi
C[C@@H](O)[C@H](NC(=O)[C@H](Cc1ccccc1)NC(=O)[C@@H](NC(=O)[C@H](CCCCN)NC(=O)[C@@H](Cc1c[nH]c2ccccc12)NC(=O)[C@H](Cc1ccc(O)cc1)NC(=O)[C@H](Cc1ccc(Cl)cc1)NC(=O)[C@@H](Cc1ccccc1)NC(=O)CN(CCN(CCN(CC(=O)O)CC(=O)O)CC(=O)O)CC(=O)O)[C@@H](C)O)C(=O)NCCCC[C@H](N)C(=O)NCC(=O)N[C@@H](CS)C(N)=O [[DTPA].FD.CPa.YWD KTFT(ε-K)GC.amide, [DTPA].FD.Cpa.YWD KTFT(ε-K)GC.amide] ({DTPA}-[dF][Phe(4-Cl)]Y[dW]KTFT[εLys]GC-NH2)	9.62
C[C@@H](O)[C@H](NC(=O)[C@H](Cc1ccccc1)NC(=O)[C@@H](NC(=O)[C@H](CCCCN)NC(=O)[C@@H](Cc1c[nH]c2ccccc12)NC(=O)[C@H](Cc1ccc(O)cc1)NC(=O)[C@H](Cc1ccc(Cl)cc1)NC(=O)[C@@H](Cc1ccc2ccccc2c1)NC(=O)CN(CCN(CCN(CC(=O)O)CC(=O)O)CC(=O)O)CC(=O)O)[C@@H](C)O)C(=O)NCCCC[C@H](N)C(=O)NCC(=O)N[C@@H](CS)C(N)=O [[DTPA].D-Nal.Cpa.YWD KTFT(ε-K)GC.amide, [DTPA]D-Nal.Cpa.YWD KTFT(ε-K)GC.amide] ({DTPA}-[d2Nal][Phe(4-Cl)]Y[dW]KTFT[εLys]GC-NH2)	8.70
CC(=O)N[C@H](Cc1ccccc1)C(=O)N[C@@H](Cc1ccccc1)C(=O)N[C@@H](Cc1ccc(O)cc1)C(=O)N[C@H](Cc1c[nH]c2ccccc12)C(=O)N[C@@H](CCCCN)C(=O)N[C@H](C(=O)N[C@@H](Cc1ccccc1)C(=O)N[C@H](C(=O)NCCCC[C@H](N)C(=O)NCC(=O)N[C@@H](CS)C(N)=O)[C@@H](C)O)[C@@H](C)O [Ac.FD.FYWD KTFT(ε-K)GC.amide] (Ac-[dF]FY[dW]KTFT[εLys]GC-NH2)	8.10
C[C@@H](O)[C@H](NC(=O)[C@H](Cc1ccccc1)NC(=O)[C@@H](NC(=O)[C@H](CCCCN)NC(=O)[C@@H](Cc1c[nH]c2ccccc12)NC(=O)[C@H](Cc1ccc(O)cc1)NC(=O)[C@H](Cc1ccc(Cl)cc1)NC(=O)[C@@H](Cc1ccccc1)NC(=O)CNC(=O)CNC(=O)CNC(=O)CS)[C@@H](C)O)C(N)=O [maGGGFD.Cpa.YWD KTFT.amide] (Mercaptoacetyl-GGG[dF][Phe(4-Cl)]Y[dW]KTFT-NH2)	9.60
C[C@@H](O)[C@H](NC(=O)[C@H](Cc1ccccc1)NC(=O)[C@@H](NC(=O)[C@H](CCCCN)NC(=O)[C@@H](Cc1c[nH]c2ccccc12)NC(=O)[C@H](Cc1ccc(O)cc1)NC(=O)[C@H](Cc1ccc(Cl)cc1)NC(=O)[C@@H](Cc1ccccc1)NC(=O)CCCCCNC(=O)CN(CCN(CCN(CC(=O)O)CC(=O)O)CC(=O)O)CC(=O)O)[C@@H](C)O)C(=O)NCCCC[C@H](N)C(=O)NCC(=O)N[C@@H](CS)C(N)=O [[DTPA].Aca.FD.Cpa.YWD KTFT(ε-K)GC.amide] ({DTPA-Ahx}-[dF][Phe(4-Cl)]Y[dW]KTFT[εLys]GC-NH2)	8.59

Reference: patent publication US5620675A, “Radioactive peptides” (Diatech, Inc., priority 1993, dated 1997)
